# Test results taken from the supplement of paper PMC4604168 (melanoma cell lines).
# The list shows a part of the results. Repeats are few or missing, and single values can be far off.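 Cells were imaged in 1,536-well plates, and nuclei stained with an antibody against cleaved PARP were counted against all DNA-stained nuclei to give the apoptosis fraction. Screening doses were chosen to leave most cells alive, and resting and induced cleaved-PARP levels differ strongly between cell lines.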
# Key:
# Test in all cases: cleaved PARP positive nuclei fraction relative to DMSO control; melanoma cells; higher = more apoptosis
# Conditions in all cases: library dose: low library concentration; 72 h
# 501Mel = system: 501Mel
# A101D = system: A101D
# A2058 = system: A2058
# A375 = system: A375
# C32 = system: C32
# CBRC013 = system: CBRC013 (line from a melanoma biopsy)
# CBRC014 = system: CBRC014 (line from a melanoma biopsy)
# CBRC016 = system: CBRC016 (line from a melanoma biopsy)
# CBRC017 = system: CBRC017 (line from a melanoma biopsy)
# CBRC034 = system: CBRC034 (line from a melanoma biopsy)
# COLO792 = system: COLO792
# COLO800 = system: COLO800
# COLO829 = system: COLO829
# G361 = system: G361
# IPC-298 = system: IPC-298
# IST-MEL1 = system: IST-MEL1
# LB2518-MEL = system: LB2518-MEL
# LOXIMVI = system: LOXIMVI
SMILES,cleaved PARP positive nuclei fraction (501Mel),cleaved PARP positive nuclei fraction (A101D),cleaved PARP positive nuclei fraction (A2058),cleaved PARP positive nuclei fraction (A375),cleaved PARP positive nuclei fraction (C32),cleaved PARP positive nuclei fraction (CBRC013),cleaved PARP positive nuclei fraction (CBRC014),cleaved PARP positive nuclei fraction (CBRC016),cleaved PARP positive nuclei fraction (CBRC017),cleaved PARP positive nuclei fraction (CBRC034),cleaved PARP positive nuclei fraction (COLO792),cleaved PARP positive nuclei fraction (COLO800),cleaved PARP positive nuclei fraction (COLO829),cleaved PARP positive nuclei fraction (G361),cleaved PARP positive nuclei fraction (IPC-298),cleaved PARP positive nuclei fraction (IST-MEL1),cleaved PARP positive nuclei fraction (LB2518-MEL),cleaved PARP positive nuclei fraction (LOXIMVI)
"COCC[n+]1c2c(n(Cc3cnccn3)c1C)C(=O)c1ccccc1C2=O + Oc1nc(-c2ccc(C(F)(F)F)cc2)nc2c1CSCC2 [XAV939] (first compound 0.0004 µM, partner dose 2 µM)",70.6%,57.4%,388%,184%,81.4%,441%,97.7%,96.7%,76.2%,94.1%,163%,118%,110%,79.4%,24.1%,47.1%,105%,32.6%
"CC1(C)NC(=O)N(c2ccc([N+](=O)[O-])c(C(F)(F)F)c2)C1=O [nilutamide] + CC(C)CCN1c2nc(Nc3cc(F)c(O)c(F)c3)ncc2N(C)C(=O)C1C [BID1870] (first compound 1 µM, partner dose 0.2 µM)",165%,262%,126%,95.5%,78.5%,88.3%,104%,109%,90.3%,49.8%,135%,98.8%,52.4%,38.3%,344%,138%,94.3%,56.5%
"Nc1cccc2c1CN(C1CCC(=O)NC1=O)C2=O (centres undefined) [lenalidomide] + COc1ccc(COc2ccc(Cc3cnc(N)nc3N)cc2OC)cc1 [GW2580] (first compound 1 µM, partner dose 1 µM)",222%,74.2%,102%,332%,87.9%,152%,80.1%,125%,71.6%,98.8%,156%,145%,89.9%,75.7%,86.6%,134%,92.8%,1390%
"C[C@]1(c2nc3c(C(N)=O)cccc3[nH]2)CCCN1 [Veliparib] + c1cc(-c2cnn3cc(-c4ccc(OCCN5CCCCC5)cc4)cnc23)ccn1 [Dorsomorphin] (first compound 1.4 µM, partner dose 0.4 µM)",83.3%,82.9%,133%,113%,39.7%,166%,115%,67.1%,88.4%,61.7%,54.5%,114%,166%,161%,43.6%,417%,178%,33.7%
"NC(=O)Nc1cc(-c2cccc(F)c2)sc1C(=O)N[C@H]1CCCNC1 + Oc1nc(-c2ccc(C(F)(F)F)cc2)nc2c1CSCC2 [XAV939] (first compound 0.02 µM, partner dose 2 µM)",126%,166%,112%,389%,38.3%,217%,101%,87.4%,84.8%,90.8%,98.5%,187%,136%,23.7%,82.2%,47.9%,198%,75.1%
"Cn1nnc2c(C(N)=O)ncn2c1=O [temozolomide] + COc1cc2ncnc(Nc3ccc(Oc4ccccc4)cc3)c2cc1OC [SrcI1] (first compound 2 µM, partner dose 2 µM)",110%,121%,75.4%,47.6%,60.5%,177%,115%,99.8%,54.9%,86.2%,50.1%,162%,73%,138%,93.3%,64.8%,150%,88.1%
"Cn1nnc2c(C(N)=O)ncn2c1=O [temozolomide] + Oc1cc(-c2nc(-c3ccccc3)[nH]c2-c2ccncc2)ccc1Cl [L779450] (first compound 2 µM, partner dose 0.2 µM)",93.2%,102%,162%,167%,56.2%,38.9%,110%,183%,128%,97.4%,86%,27.7%,79.1%,101%,147%,92.8%,95.2%,36.1%
"C[C@]1(c2nc3c(C(N)=O)cccc3[nH]2)CCCN1 [Veliparib] + COC(=O)c1sccc1S(=O)(=O)Nc1ccc(Nc2ccccc2)cc1OC [GSK0660] (first compound 1.4 µM, partner dose 1 µM)",61.9%,124%,94.9%,105%,160%,69.4%,106%,61.5%,91.2%,85.7%,96.8%,68%,190%,55.7%,82.4%,96.1%,96.4%,63.6%
"Cn1cncc1[C@@](N)(c1ccc(Cl)cc1)c1ccc2c(c1)c(-c1cccc(Cl)c1)cc(=O)n2C [tipifarnib] + O=c1cc(-c2cccc3c2Sc2ccccc2S3)oc(N2CCOCC2)c1 [KU55933] (first compound 0.01 µM, partner dose 1 µM)",93.7%,50.2%,99%,109%,94.7%,283%,104%,81.7%,209%,89.5%,107%,171%,150%,79.7%,85.3%,89.3%,247%,33.2%
"OCCn1cc(-c2cnc3nnn(Cc4ccc5ncccc5c4)c3n2)cn1 + O=c1cc(-c2cccc3c2Sc2ccccc2S3)oc(N2CCOCC2)c1 [KU55933] (first compound 1 µM, partner dose 1 µM)",101%,220%,97.9%,34.5%,79.8%,34.8%,95.8%,57%,208%,96.3%,94.6%,65.5%,112%,117%,123%,40%,66.6%,59.9%
"Cn1cncc1[C@@](N)(c1ccc(Cl)cc1)c1ccc2c(c1)c(-c1cccc(Cl)c1)cc(=O)n2C [tipifarnib] + COc1ccc2c(c1)CCC1C2CCC2(C)C(NCCCCCCN3C(=O)C=CC3=O)CCC12 [U73122] (first compound 0.01 µM, partner dose 0.4 µM)",64.3%,240%,280%,709%,54.2%,596%,120%,177%,81.2%,100%,155%,141%,118%,170%,110%,169%,115%,82.6%
"O=C(Nc1cccc(Cl)c1)Nc1ncc(CCNc2ncnc3ccsc23)s1 + O=C(O)C(=O)Nc1sc2c(c1C(=O)O)CCNC2 [TCS401] (first compound 0.0008 µM, partner dose 1.66667 µM)",75%,123%,77.1%,140%,39.1%,439%,97%,63.6%,59.1%,86.4%,67%,122%,110%,101%,39.1%,131%,82%,33.4%
"CC1(C)NC(=O)N(c2ccc([N+](=O)[O-])c(C(F)(F)F)c2)C1=O [nilutamide] + O=C1NC(=O)/C(=C/c2ccc(-c3ccc(F)cc3O)o2)S1 [AS252424] (first compound 1 µM, partner dose 1 µM)",41.7%,77%,93.3%,143%,96.9%,200%,86.3%,38.6%,89.7%,120%,98.9%,86.4%,116%,54.7%,290%,56.5%,86.8%,70.6%
"CC(C)(C)c1cnc(CSc2cnc(NC(=O)C3CCNCC3)s2)o1 + O=C(O)C(=O)Nc1sc2c(c1C(=O)O)CCNC2 [TCS401] (first compound 0.01 µM, partner dose 1.66667 µM)",89.8%,114%,73%,553%,126%,208%,106%,49%,66.7%,80.2%,106%,156%,62.8%,112%,84.7%,133%,92.1%,63.5%
"C[C@@H]1CCN(C(=O)CC#N)C[C@@H]1N(C)c1ncnc2[nH]ccc12 + CCc1ccc(CCOc2ccc(CC3SC(=O)NC3=O)cc2)nc1 [pioglitazone] (first compound 1 µM, partner dose 2 µM)",69.1%,103%,98.8%,79.3%,87.9%,246%,92.8%,95.9%,78.9%,44.9%,192%,48%,109%,104%,82.9%,131%,84.1%,658%
"Cc1cc(N2CCOCC2)cc2[nH]c(-c3c(NC[C@@H](O)c4cccc(Cl)c4)cc[nH]c3=O)nc12 + O=C1NC(=O)/C(=C/c2ccc(-c3ccc(F)cc3O)o2)S1 [AS252424] (first compound 0.2 µM, partner dose 1 µM)",190%,525%,104%,104%,127%,563%,101%,65.8%,99.5%,47%,124%,119%,74.8%,148%,53.7%,130%,240%,46.2%
"CO[C@@H]1[C@H](N(C)C(=O)c2ccccc2)C[C@H]2O[C@]1(C)n1c3ccccc3c3c4c(c5c6ccccc6n2c5c31)C(=O)NC4 [Midostaurin] + COc1ccc(-c2ccc3c(N4CCOCC4)nc(N4C[C@@H](C)O[C@@H](C)C4)nc3n2)cc1CO [KU0063794] (first compound 0.08 µM, partner dose 0.02 µM)",84%,79%,97.8%,195%,78.6%,99%,111%,81.5%,98.2%,95.3%,88.3%,114%,129%,176%,92.6%,87.9%,87.5%,55%
"O=C(Nc1cccc(Cl)c1)Nc1ncc(CCNc2ncnc3ccsc23)s1 + COc1ccc2c(c1)CCC1C2CCC2(C)C(NCCCCCCN3C(=O)C=CC3=O)CCC12 [U73122] (first compound 0.0008 µM, partner dose 0.4 µM)",80.2%,52.1%,83.9%,178%,68.1%,155%,97.8%,178%,96.4%,72%,59.4%,65.7%,123%,264%,166%,87.3%,75.6%,62.3%

# Already shown: entries from further up.
SMILES,cleaved PARP positive nuclei fraction (501Mel),cleaved PARP positive nuclei fraction (A101D),cleaved PARP positive nuclei fraction (A2058),cleaved PARP positive nuclei fraction (A375),cleaved PARP positive nuclei fraction (C32),cleaved PARP positive nuclei fraction (CBRC013),cleaved PARP positive nuclei fraction (CBRC014),cleaved PARP positive nuclei fraction (CBRC016),cleaved PARP positive nuclei fraction (CBRC017),cleaved PARP positive nuclei fraction (CBRC034),cleaved PARP positive nuclei fraction (COLO792),cleaved PARP positive nuclei fraction (COLO800),cleaved PARP positive nuclei fraction (COLO829),cleaved PARP positive nuclei fraction (G361),cleaved PARP positive nuclei fraction (IPC-298),cleaved PARP positive nuclei fraction (IST-MEL1),cleaved PARP positive nuclei fraction (LB2518-MEL),cleaved PARP positive nuclei fraction (LOXIMVI)
"NC(=O)Nc1cc(-c2cccc(F)c2)sc1C(=O)N[C@H]1CCCNC1 + Oc1nc(-c2ccc(C(F)(F)F)cc2)nc2c1CSCC2 [XAV939] (first compound 0.02 µM, partner dose 2 µM)",126%,166%,112%,389%,38.3%,217%,101%,87.4%,84.8%,90.8%,98.5%,187%,136%,23.7%,82.2%,47.9%,198%,75.1%
"Cn1nnc2c(C(N)=O)ncn2c1=O [temozolomide] + COc1cc2ncnc(Nc3ccc(Oc4ccccc4)cc3)c2cc1OC [SrcI1] (first compound 2 µM, partner dose 2 µM)",110%,121%,75.4%,47.6%,60.5%,177%,115%,99.8%,54.9%,86.2%,50.1%,162%,73%,138%,93.3%,64.8%,150%,88.1%
"Cn1nnc2c(C(N)=O)ncn2c1=O [temozolomide] + Oc1cc(-c2nc(-c3ccccc3)[nH]c2-c2ccncc2)ccc1Cl [L779450] (first compound 2 µM, partner dose 0.2 µM)",93.2%,102%,162%,167%,56.2%,38.9%,110%,183%,128%,97.4%,86%,27.7%,79.1%,101%,147%,92.8%,95.2%,36.1%
